Experimental findings from ChEMBL document CHEMBL4513136, “CO-ADD screening of CSIC (Spain) compounds” are described below.

Some of the results follow. Potency and affinity values are given separately.

The experiment concerns Pseudomonas aeruginosa. Particulars: Concentration 32 ug.mL-1; ASSAY_TEST Inhibition of Bacterial Growth; detection method Absorption (OD600); MEDIA CAMHB; plate type 384well; NBS; CORNING #3640; time 18 hr.
Usually Inhibition stands for the relative decrease from the control value, in per cent. As to `O=C(Cc1cc(O)ccc1O)Nc1ccc(O)cc1O`, the Inhibition is 17.31%.

On to `O=C(Cc1cc(O)ccc1O)Nc1ccc(O)cc1`, for which the Inhibition was 12.22%.

`COc1ccc(OC)c(C(=O)/C=C/c2ccccc2O)c1`: the Inhibition came to 5.24%.

Consider `O=C(/C=C/c1ccccc1O)c1cc(O)c(O)cc1O`, for which the Inhibition is listed as 22.81%.

With `COc1ccccc1/C=C/C(=O)c1cc(OC)c(OC)cc1OC`, the Inhibition came out at 11.59%.

Consider `COc1ccc(OC)c(CC(=O)Nc2cc(OC)ccc2OC)c1`, for which the Inhibition is 2.74%.

Regarding `O=C(OCc1ccccc1)N1C(=O)C(c2ccccc2NC(=O)C(F)(F)F)=C(O)C1Cc1ccccc1` (stereo unspecified), the Inhibition came out at 7.49%.

Consider `COc1ccc(C(=O)/C=C/c2ccc(OC)cc2OC)cc1`, for which the Inhibition amounted to 1.68%.

In the case of `COC(=O)c1c(C(Cc2ccccc2)NC(=O)OCc2ccccc2)[nH]c2ccccc12` (stereo unspecified), the Inhibition was -3.99%.

Regarding `COc1ccc(OC)c(C(=O)CCc2ccccc2O)c1`, the Inhibition was 2.84%.

As for `Oc1ccc(-n2cc(-c3cc(O)ccc3O)nn2)cc1`, the Inhibition turned out to be 13.95%.

As to `COc1ccc(CN2C(=O)C(C)C2(Cc2cn(C(=O)OC(C)(C)C)c3ccccc23)C(=O)OC(C)(C)C)cc1` (stereo unspecified), the Inhibition is 9.77%.

On to `O=C(Nc1ccc(O)cc1O)Nc1cc(O)ccc1O`, for which the Inhibition is recorded as -3.51%.

Consider `O=C(Cc1cc(O)ccc1O)Nc1cc(O)ccc1O`, for which the Inhibition is 11.55%.

On to `Oc1ccc(O)c(-c2cn(-c3ccc(O)c(O)c3)nn2)c1`, for which the Inhibition was 3.97%.

For the compound `O=C(CCc1ccc(O)cc1O)c1cc(O)ccc1O`, the Inhibition is reported as 18.43%.

With `COc1ccc(OC)c(C(=O)CCc2ccc(O)cc2)c1`, the Inhibition is recorded as -0.06%.

Regarding `COc1ccc(OC)c(NC(=O)Nc2ccc(OC)cc2OC)c1`, the Inhibition is on record as 7.86%.

`COc1ccc(OC)c(C(=O)/C=C/c2c[nH]c3ccc(OC)cc23)c1`: the Inhibition came out at 12.56%.

Consider `COc1ccc(NC(=O)Cc2cc(OC)ccc2OC)cc1`, for which the Inhibition stood at 11.92%.

Regarding `CC1C(=O)N(Cc2ccc(OCCN3CCOCC3)cc2)C1(Cc1ccccc1)C(=O)O` (stereo unspecified), the Inhibition is -0.13%.

`COc1ccc(OC)c(-c2cn(-c3ccc(OC)c(OC)c3)nn2)c1`: the Inhibition was -6.79%.

Take `COC(=O)C1(Cc2ccc(OCc3c(Cl)cccc3Cl)cc2)C(C)C(=O)N1Cc1ccc(OC)cc1` (stereo unspecified): the Inhibition is 39.73%.

Turning to `COc1ccc(OC)c(CC(=O)Nc2ccc(OC)cc2OC)c1`, the Inhibition is 13.71%.

As to `COc1ccc(OC)c(C(=O)/C=C/c2ccc(O)cc2)c1`, the Inhibition stood at 14.08%.

Turning to `O=C(/C=C/c1c[nH]c2ccc(O)cc12)c1cc(O)ccc1O`, the Inhibition turned out to be 12.03%.
